From patent publication US20220118104A1, “COMPOUNDS COMPRISING CLEAVABLE LINKER AND USES THEREOF” (IntoCell, Inc., priority 2019, published 2022)
Some results were stated once for a whole list of compounds, not compound by compound.

How the values were obtained:
[1] = Mouse plasma stability test; type: in vitro ADME; details: 300 μM, 37° C., up to 7 days, HPLC
[2] = Human plasma stability test; type: in vitro ADME; details: 300 μM, 37° C., up to 7 days, HPLC

| Structure (SMILES) | compound detected and quantitated in mouse plasma [1] [%] | compound detected and quantitated in human plasma [2] [%] |
| --- | --- | --- |
| CNC(=O)[C@H](Cc1ccc(OS(=O)(=O)Cc2ccc(OC3O[C@H](CO)[C@H](O)[C@H](O)[C@H]3O)cc2)cc1)NC(=O)OC(C)(C)C (stereo partly shown) [Compound A-1] | > 95 | > 95 |
| CNC(=O)[C@H](Cc1ccc(OS(=O)(=O)Cc2ccc(OC3O[C@H](CO)[C@H](O)[C@H](O)[C@H]3O)c(C(=O)NCCOCCOCCOCCN=[N+]=[N-])c2)cc1)NC(=O)OC(C)(C)C (stereo partly shown) [Compound A-2] | > 95 | > 95 |
